From PubChem BioAssay AID624297 (National Center for Advancing Translational Sciences (NCATS), 2012)
The whole screen tested about 340,000 compounds, of which about 6,200 (1.8%) were called active. The shares of active, inactive and inconclusive entries below differ from those in the screen. Calls come from the whole dose curve; as a rule, active = well fitted activation curve with a large enough effect; inconclusive = small, poorly fitted or top-dose-only effect; inactive = no such curve, though single readings can be large or run the other way. A potency beside an inconclusive call is a rough fit, not a confirmed value.

Experiment: A quantitative high throughput screen for small molecules that induce DNA re-replication in SW480 colon adenocarcinoma cells. For re-replication activation: % of control where 0% means no effect. Note: nearly all actives have a fitted effect of over 55% in size.
Conditions: Hoechst DNA content imaging, 48 h; re-replication activation: at 46.1 µM (top of the series)
Procedure, shortened: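 First, 250 cells per well were seeded. Next, compound or vehicle (23 nL) was pinned in, plates sat 48 hr at 37 C. Finally Hoechst was added for 40 min before fluorescence scanning.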
Potency is the fitted concentration of half-maximal effect.

Row | Structure (SMILES) | Potency | re-replication activation
1 | COc1ccc(CN2CCc3c([nH]c4ccccc34)C2)c(OC)c1C | inactive | 
2 | O=C(CCn1cccc1)NC1CCCc2ccccc21 (configuration not stated) | inconclusive: 29.1 µM [activator, single point] | 
3 | CCc1ccc2[nH]c3nc(SCc4nnc(-c5ccccc5)o4)nnc3c2c1 | inactive | 
4 | CC(NCCC(c1ccccc1)c1ccccc1)c1ccccc1 (configuration not stated) | active: 7.31 µM | 
5 | CC(C)OCCCNc1ccc(N2C(=O)CCCC2=O)cc1[N+](=O)[O-] | inconclusive: 18.4 µM [activator, single point] | 
6 | O=C1c2ccccc2C(=O)N1CC(=O)N1c2ccccc2Sc2ccccc21 | inactive | 
7 | CCOC(=O)C(C)Sc1nc(-c2ccco2)cc(C(F)(F)F)c1C#N (configuration not stated) | inconclusive: 20.6 µM [activator, partial curve, poor fit] | 
8 | CC(C)(C)c1cc(/C=N/NC(=O)Cc2nc3ccccc3[nH]2)cc(C(C)(C)C)c1O | inconclusive: 32.6 µM [activator, partial curve, poor fit] | 
9 | COc1ccccc1OCC(=O)NCc1nc(-c2ccccc2)no1 | inconclusive: 0.0073 µM [activator, full curve, poor fit] | 
10 | C=CCSc1nsc(NC(=O)Nc2ccc(F)cc2)n1 | inactive | 
11 | CC(C)S(=O)(=O)C1=NSC2=NC(=O)/C(=C\c3ccc(-c4ccccc4)o3)C(=N)N21 | inconclusive: 11.6 µM [activator, partial curve, poor fit] | 
12 | O=C(O)c1ccc(COc2ccc3ccccc3c2/C=C2/NC(=O)N(Cc3ccc(F)cc3)C2=O)cc1 | inconclusive: 4.11 µM [activator, single point] | 
13 | COc1cc(C2N(C)CCC3(OCCO3)C2(C)C)cc(OC)c1OC (configuration not stated) | inconclusive: 0.231 µM [activator, full curve, poor fit] | 
14 | CCCCCCCCCCCCOCCCN | inactive | 
15 | Cc1c(NC(=O)c2cc(-c3ccc(F)cc3)nc3ccccc23)c(=O)n(-c2ccccc2)n1C | inactive | 
16 | Cc1sc2nc(CSc3n[nH]c(N)n3)[nH]c(=O)c2c1C | inconclusive: 5.17 µM [activator, single point] | 
17 | Cc1nn(Cc2ccccc2)c(Cl)c1C(=O)NCc1ccco1 | inactive | 
18 | COc1ccc(CN2CCN(C(=O)CCC(=O)Nc3nnc(C4CCCCC4)s3)CC2)cc1F | inactive | 
19 | N#C/C(=C(/O)CCl)c1nc2c(s1)CCc1ccccc1-2 | inconclusive: 29.1 µM [activator, single point] | 
20 | COc1cc(/C=C/[N+](=O)[O-])ccc1OCc1cccc(C(=O)O)c1 | inconclusive: 23.1 µM [activator, single point] | 
21 | Cc1cccc(C)c1NC(=S)NC(=O)CCc1ccccc1 | active: 3.26 µM | 
22 | CSc1nc2sc3c(c2c(=O)[nH]1)CC(C)(C)OC3 | inactive | 
23 | CN1CCN(C(=O)/C=C/c2ccc(Cl)c(Cl)c2)CC1 | inconclusive: 20.6 µM [activator, single point] | 
24 | Cc1nc2ccc(S(=O)(=O)Nc3cc(-c4nc5cccnc5s4)ccc3C)cc2s1 | active: 23.1 µM | 

Row | Structure (SMILES) | Potency | re-replication activation
25 | COc1ccc(C2C(C#N)=C(N)Oc3c2ccc2cccnc32)cc1OC (configuration not stated) | active: 1.64 µM | 
26 | CSc1ccc(S(=O)(=O)Nc2ccc3c(c2)NC(=O)CC3)cc1 | inactive | 
27 | CN(Cc1nnc(-c2ccc(F)cc2)o1)c1ccccc1 | inconclusive: 23.1 µM [activator, single point] | 
28 | N#Cc1c(N2CCSCC2)nsc1-c1ccccc1Cl | inconclusive: 18.4 µM [activator, single point] | 
29 | Cc1cc(C(=O)COC(=O)c2ccncc2)c(C)n1Cc1ccco1 | inactive | 
30 | CNc1cc(CS(=O)c2ccccc2)nc(-c2ccccc2)n1 (configuration not stated) | inactive | 
31 | CC(=O)OC1CCC2(C)C(=CCC3C4CC(=O)N(O)C(=O)C4(C)CCC32)C1 (configuration not stated) | inconclusive: 18.4 µM [activator, single point] | 
32 | Cc1ccc(S(=O)(=O)c2nc(-c3ccccc3Br)oc2N(C)C)cc1 | inconclusive: 29.1 µM [activator, single point] | 
33 | COc1cc(C(=O)OCC(=O)NCCC2=CCCCC2)ccc1OCC(C)C | inactive | 
34 | CCN(CC)S(=O)(=O)c1ccc(N=N/C(C(C)=O)=C(/C)O)cc1 | inconclusive: 20.6 µM [activator, single point] | 
35 | CCC(C)NC(=O)c1ccc(N2CCC3(CC2)OCCO3)c([N+](=O)[O-])c1 (configuration not stated) | inconclusive: 32.6 µM [activator, single point] | 
36 | Cc1ccccc1C(=O)NC(=S)Nc1ccc(S(=O)(=O)N2CCN(C)CC2)cc1 |  | inconclusive: 74.5% [activator]
37 | C=CCc1ccc(OCC(O)COCC)c(OC)c1 (configuration not stated) | inactive | 
38 | CSc1ncccc1C(=O)OCC(=O)N1CCCC1 | inconclusive: 29.1 µM [activator, single point] | 
39 | CC(C)(C)S(=O)N1Cc2ccc(CO)cc2[C@@H]1CCO (some centres not stated) | inconclusive: 1.16 µM [activator, single point] | 
40 | CCN(CC)CCn1c(SCC(=O)Nc2ccc3c(c2)CCC3)nc2ccccc2c1=O | inconclusive: 29.1 µM [activator, single point] | 
41 | C#CCOCCOCCOCCNc1nc(N2CCN(C(=O)Cn3cc(CCCN=C(N)N)nn3)CC2)nc(N2CCN(C(=O)[C@H](CCCCN)n3cc(CC(C)O)nn3)CC2)n1 (some centres not stated) | inconclusive: 6.51 µM [activator, single point] | 
42 | Cc1cc(C(=O)NNC(=O)c2ccccc2O)c(C)o1 | inconclusive: 29.1 µM [activator, single point] | 
43 | CC1/C(=N/O)CC(c2ccccc2)N(C)C1c1ccccc1 (configuration not stated) | inconclusive: 20.6 µM [activator, single point] | 
44 | COc1ccc(O)c(/C=N/n2c(-c3ccco3)csc2=Nc2cccnc2)c1 | inactive | 
45 | CN(c1ccccc1)c1nc(N)c([N+](=O)[O-])c(Nc2ccccc2F)n1 | inactive | 
46 | COc1ccc(NC(C)=O)c(C)c1 | inconclusive: 16.4 µM [activator, partial curve, poor fit] | 
47 | Fc1ccc(NC(=S)NN=Cc2ccccc2Cl)cc1 | inconclusive: 29.1 µM [activator, single point] | 

Single records (already shown).
`CSc1ncccc1C(=O)OCC(=O)N1CCCC1` in the list: Potency: inconclusive: 29.1 µM [activator, single point]
`Cc1cc(C(=O)COC(=O)c2ccncc2)c(C)n1Cc1ccco1` in the list: Potency: inactive
`COc1ccc(NC(C)=O)c(C)c1` in the list: Potency: inconclusive: 16.4 µM [activator, partial curve, poor fit]
`CNc1cc(CS(=O)c2ccccc2)nc(-c2ccccc2)n1` (configuration not stated) in the list: Potency: inactive
